No constants are given. Whether binding was seen depends on the method and setting. Binding calls can cover weak binding; strength is not graded here. For some assays here: Sequences can lack the tags named with a protein. For some assays here: In cells and extracts the contact can be indirect. Blank lines part the entries; values can stand above or below the molecule they belong to.
Key:
[1] = molecular target: CFDP1 (endogenous, mitotic HeLa cells) (human (endogenous in HeLa)) (UniProt Q9UEE9); experiment: co-IP; anti-CFDP1 antibody (mouse IgG as control), cytosolic and chromatin extracts of mitotic HeLa cells, overnight at 4°C, Dynabeads Protein G, wash with 250 mM NaCl, 0.1% NP40; immunoblot
[2] = molecular target: Taxol stabilized microtubules (polymerized tubulin); experiment: co-sedimentation; test proteins (5 µM) with Taxol stabilized MTs in GTB, 30 min at room temperature, 100,000 g for 40 min at 25°C through a 60% glycerol cushion; supernatant and pellet by SDS-PAGE (Coomassie or western blot); CFDP1 and TPX2 also added together at varied concentrations; both …

By UniProt entry, the sequences of proteins in these tests, tags left out. Where a name states a change or a piece, a line headed by the entry shows the natural chain unless it says otherwise.
UniProt P23258: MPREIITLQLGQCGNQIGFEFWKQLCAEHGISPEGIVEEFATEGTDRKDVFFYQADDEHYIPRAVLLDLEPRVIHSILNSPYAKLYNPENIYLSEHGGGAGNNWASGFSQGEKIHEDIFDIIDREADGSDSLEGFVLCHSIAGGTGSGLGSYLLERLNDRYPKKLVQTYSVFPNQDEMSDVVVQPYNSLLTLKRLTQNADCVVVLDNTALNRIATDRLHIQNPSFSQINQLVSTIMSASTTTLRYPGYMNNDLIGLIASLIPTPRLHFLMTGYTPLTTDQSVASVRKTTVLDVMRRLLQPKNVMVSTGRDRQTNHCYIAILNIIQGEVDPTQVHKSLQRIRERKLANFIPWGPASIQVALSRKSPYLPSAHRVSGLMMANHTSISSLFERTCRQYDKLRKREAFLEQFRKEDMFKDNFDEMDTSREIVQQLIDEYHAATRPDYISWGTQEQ

binding [1]: binds
Molecule: γ-tubulin (endogenous, mitotic HeLa cells) (from UniProt P23258)

binding [2]: binds
B1: CFDP1 center fragment (aa 99-199), HIS tagged (domain or fragment, UniProt O88271 99-199)
chain: ENARKKKEDELWASFLNDVGPKSKAAPGSQTKVAEETEEISSNKPLVKADELDKPRESEKVKITKVFDFAGEEVRVTKEVDAASKEAKSFLKQTEREKPQA

Reference: paper doi:10.1101/2025.09.22.677689
